The results in this text go back to US7393944.

The exact form of at least one protein or probe is not confirmed. Protein sequences can lack the tags named with them.

The target of the data set is T1, T-bet (Mus musculus) (UniProt Q9JKD8).
T1 sequence: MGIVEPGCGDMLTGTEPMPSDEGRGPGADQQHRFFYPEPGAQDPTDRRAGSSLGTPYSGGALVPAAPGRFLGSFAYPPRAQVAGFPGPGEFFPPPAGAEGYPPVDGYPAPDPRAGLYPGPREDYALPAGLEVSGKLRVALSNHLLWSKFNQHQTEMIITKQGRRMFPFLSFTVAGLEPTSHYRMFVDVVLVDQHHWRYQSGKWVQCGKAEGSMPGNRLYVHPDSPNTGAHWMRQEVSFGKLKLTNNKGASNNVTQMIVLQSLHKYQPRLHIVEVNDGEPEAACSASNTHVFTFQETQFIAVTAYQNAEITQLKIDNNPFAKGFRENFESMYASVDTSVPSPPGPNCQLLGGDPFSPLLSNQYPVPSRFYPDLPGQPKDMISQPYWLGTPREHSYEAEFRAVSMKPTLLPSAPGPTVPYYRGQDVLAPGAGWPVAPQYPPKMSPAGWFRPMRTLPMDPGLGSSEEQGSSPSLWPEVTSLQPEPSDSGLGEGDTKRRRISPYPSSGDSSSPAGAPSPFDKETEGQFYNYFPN
In words: binding assay. Conditions: recombinant T-bet binds T-box site in IL-2 promoter; method not stated; purified recombinant protein.

For the sequence “AAACTGCCACCTAAGTGTGGGCTA (double strand) [murine IL-2 promoter T-box site]”, the binding result was “binds”.
